Results are given in words; binding and its absence hold for the method and conditions named. In cells and extracts the contact can be indirect. A yes stands for co-enrichment or nearness to the bait. Other partners may have been found.
T1: Helicase for meiosis 1 (HFM1), endogenous in embryonic mouse ovary (mouse (endogenous in embryonic mouse ovary)) (UniProt D3Z4R1)
T1 sequence: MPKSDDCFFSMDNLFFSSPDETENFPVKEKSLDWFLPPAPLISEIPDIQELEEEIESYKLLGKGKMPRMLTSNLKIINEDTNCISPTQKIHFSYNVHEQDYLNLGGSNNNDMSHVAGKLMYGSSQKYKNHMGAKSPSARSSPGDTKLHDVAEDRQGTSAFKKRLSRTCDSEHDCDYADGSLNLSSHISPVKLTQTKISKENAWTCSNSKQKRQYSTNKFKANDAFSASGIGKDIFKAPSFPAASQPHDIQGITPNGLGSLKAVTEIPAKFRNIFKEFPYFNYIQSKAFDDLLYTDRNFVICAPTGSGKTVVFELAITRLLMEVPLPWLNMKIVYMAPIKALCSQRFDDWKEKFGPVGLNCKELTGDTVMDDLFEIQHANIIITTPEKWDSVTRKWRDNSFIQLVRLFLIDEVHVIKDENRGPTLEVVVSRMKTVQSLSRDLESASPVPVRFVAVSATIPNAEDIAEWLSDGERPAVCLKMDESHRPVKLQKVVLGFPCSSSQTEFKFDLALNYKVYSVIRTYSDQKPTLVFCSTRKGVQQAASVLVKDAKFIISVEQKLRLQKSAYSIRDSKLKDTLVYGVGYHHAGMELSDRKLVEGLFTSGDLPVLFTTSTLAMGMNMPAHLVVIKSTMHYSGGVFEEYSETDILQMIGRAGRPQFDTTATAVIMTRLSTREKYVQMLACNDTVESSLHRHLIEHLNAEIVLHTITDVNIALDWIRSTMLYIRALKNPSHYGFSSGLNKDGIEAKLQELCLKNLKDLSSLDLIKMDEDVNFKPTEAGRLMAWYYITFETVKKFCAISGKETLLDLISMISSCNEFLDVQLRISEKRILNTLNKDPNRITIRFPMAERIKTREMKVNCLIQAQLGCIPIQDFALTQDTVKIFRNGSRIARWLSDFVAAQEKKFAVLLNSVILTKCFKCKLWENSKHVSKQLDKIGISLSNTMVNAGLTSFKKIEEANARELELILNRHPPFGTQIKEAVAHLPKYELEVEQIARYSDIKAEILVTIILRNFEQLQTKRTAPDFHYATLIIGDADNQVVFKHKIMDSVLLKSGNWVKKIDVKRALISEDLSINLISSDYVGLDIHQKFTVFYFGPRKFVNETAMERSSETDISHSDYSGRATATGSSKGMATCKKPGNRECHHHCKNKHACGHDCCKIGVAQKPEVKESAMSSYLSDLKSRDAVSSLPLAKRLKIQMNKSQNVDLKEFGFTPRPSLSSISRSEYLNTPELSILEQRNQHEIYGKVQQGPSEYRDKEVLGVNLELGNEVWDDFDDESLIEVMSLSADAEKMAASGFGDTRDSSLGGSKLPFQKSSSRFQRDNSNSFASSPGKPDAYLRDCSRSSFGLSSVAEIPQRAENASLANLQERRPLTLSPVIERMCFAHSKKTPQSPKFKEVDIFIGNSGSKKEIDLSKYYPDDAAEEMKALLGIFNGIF

Protein sequences, listed by entry. Tags and fused reporters are not part of them.
UniProt Q61545: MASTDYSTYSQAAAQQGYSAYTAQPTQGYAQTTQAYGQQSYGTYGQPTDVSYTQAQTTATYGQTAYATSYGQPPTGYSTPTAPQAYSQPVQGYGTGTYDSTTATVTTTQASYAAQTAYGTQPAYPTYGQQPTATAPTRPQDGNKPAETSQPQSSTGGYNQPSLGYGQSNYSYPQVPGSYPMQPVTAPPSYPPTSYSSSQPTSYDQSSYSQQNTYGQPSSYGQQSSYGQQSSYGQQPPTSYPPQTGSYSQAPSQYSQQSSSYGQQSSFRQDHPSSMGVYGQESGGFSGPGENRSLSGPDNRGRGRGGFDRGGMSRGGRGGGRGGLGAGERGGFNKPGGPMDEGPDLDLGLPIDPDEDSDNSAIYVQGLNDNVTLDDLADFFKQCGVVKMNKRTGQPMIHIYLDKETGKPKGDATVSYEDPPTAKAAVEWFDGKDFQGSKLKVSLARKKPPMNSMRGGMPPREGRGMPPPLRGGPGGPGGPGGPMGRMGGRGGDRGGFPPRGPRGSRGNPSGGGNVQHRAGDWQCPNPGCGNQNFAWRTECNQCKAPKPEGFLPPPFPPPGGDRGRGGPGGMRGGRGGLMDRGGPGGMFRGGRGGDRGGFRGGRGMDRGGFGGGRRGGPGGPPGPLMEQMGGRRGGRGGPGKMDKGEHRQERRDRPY
UniProt Q61879: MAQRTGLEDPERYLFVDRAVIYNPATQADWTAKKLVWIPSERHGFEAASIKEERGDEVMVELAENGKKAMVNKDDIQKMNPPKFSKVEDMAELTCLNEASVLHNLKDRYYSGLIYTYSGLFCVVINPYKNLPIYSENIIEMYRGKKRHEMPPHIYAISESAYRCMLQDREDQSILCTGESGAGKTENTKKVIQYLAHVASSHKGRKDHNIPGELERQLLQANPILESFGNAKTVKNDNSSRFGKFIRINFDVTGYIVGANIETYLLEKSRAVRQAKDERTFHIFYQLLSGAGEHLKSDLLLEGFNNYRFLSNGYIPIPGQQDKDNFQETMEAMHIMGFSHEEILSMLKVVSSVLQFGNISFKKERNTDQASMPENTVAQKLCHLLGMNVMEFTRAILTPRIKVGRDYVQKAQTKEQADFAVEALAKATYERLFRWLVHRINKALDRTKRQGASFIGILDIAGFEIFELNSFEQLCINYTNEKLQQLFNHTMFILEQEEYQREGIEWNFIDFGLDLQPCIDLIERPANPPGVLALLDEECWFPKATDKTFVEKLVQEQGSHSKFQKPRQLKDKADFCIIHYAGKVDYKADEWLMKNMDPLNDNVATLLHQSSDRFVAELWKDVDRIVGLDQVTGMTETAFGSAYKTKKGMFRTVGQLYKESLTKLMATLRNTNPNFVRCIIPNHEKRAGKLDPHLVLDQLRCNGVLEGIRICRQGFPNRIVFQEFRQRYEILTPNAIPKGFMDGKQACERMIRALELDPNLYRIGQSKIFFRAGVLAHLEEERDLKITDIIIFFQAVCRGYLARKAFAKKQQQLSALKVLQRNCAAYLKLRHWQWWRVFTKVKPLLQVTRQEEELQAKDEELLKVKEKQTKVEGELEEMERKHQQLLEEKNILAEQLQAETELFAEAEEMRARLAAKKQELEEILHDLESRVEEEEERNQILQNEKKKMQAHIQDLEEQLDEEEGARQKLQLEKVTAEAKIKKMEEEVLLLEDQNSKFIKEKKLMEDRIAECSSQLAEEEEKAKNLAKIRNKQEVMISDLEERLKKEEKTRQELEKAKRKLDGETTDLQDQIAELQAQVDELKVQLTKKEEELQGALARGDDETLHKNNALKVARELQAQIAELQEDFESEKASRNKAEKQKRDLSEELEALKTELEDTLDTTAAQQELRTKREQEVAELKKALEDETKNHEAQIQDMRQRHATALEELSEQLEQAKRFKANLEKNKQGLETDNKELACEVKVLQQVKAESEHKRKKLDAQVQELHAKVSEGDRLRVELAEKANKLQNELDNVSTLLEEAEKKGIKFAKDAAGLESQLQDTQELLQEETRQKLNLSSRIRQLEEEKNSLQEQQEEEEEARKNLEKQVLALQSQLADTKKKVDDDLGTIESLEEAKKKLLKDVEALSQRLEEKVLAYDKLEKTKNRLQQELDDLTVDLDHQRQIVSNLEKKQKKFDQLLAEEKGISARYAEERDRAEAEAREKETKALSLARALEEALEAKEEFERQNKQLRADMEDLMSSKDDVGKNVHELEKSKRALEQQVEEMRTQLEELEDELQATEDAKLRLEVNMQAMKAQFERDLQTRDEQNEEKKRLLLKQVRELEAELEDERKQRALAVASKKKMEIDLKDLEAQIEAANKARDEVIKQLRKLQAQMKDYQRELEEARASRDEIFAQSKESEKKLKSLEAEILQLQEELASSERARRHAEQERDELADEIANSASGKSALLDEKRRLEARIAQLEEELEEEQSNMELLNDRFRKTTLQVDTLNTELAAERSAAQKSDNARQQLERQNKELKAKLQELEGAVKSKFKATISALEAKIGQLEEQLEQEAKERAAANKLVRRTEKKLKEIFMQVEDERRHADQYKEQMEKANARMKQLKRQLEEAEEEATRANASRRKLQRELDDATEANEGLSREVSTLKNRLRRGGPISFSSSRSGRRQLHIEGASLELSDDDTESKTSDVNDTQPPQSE


molecular target: T1, Helicase for meiosis 1 (HFM1), endogenous in embryonic mouse ovary (mouse (endogenous in embryonic mouse ovary)); experiment: affinity purification with mass spectrometry; HFM1-IP on Protein A/G magnetic beads from digested 17.5 dpc mouse ovaries, 1 h at room temperature; eluted proteins analysed by silver stain and mass spectrometry

Molecule | binding
EWS (from UniProt Q61545 1-655) | binds
GCAB | binds
IGHG3 | binds

The remaining lines, values ahead:

binding | Molecule
binds | MYH10 (from UniProt Q61879 1-1976)
binds | CAPR1 (protein, UniProt Q60865 1-707) MPSATSHSGSGSKSSGPPPPSGSSGSEAAAGAAAPASQHPATGTGAVQTEAMKQILGVIDKKLRNLEKKKGKLDDYQERMNKGERLNQDQLDAVSKYQEVTNNLEFAKELQRSFMALSQDIQKTIKKTARREQLMREEAEQKRLKTVLELQYVLDKLGDDDVRTDLKQGLSGVPILSEEELSLLDEFYKLVDPERDMSLRLNEQYEHASIHLWDLLEGKEKPVCGTTYKALKEIVERVFQSNYFDSTHNHQNGLCEEEEAASAPTVEDQVAEAEPEPAEEYTEQSEVESTEYVNRQFMAETQFSSGEKEQVDEWTVETVEVVNSLQQQPQAASPSVPEPHSLTPVAQSDPLVRRQRVQDLMAQMQGPYNFIQDSMLDFENQTLDPAIVSAQPMNPTQNMDMPQLVCPQVHSESRLAQSNQVPVQPEATQVPLVSSTSEGYTASQPLYQPSHATEQRPQKEPMDQIQATISLNTDQTTASSSLPAASQPQVFQAGTSKPLHSSGINVNAAPFQSMQTVFNMNAPVPPANEPETLKQQSQYQATYNQSFSSQPHQVEQTELQQDQLQTVVGTYHGSQDQPHQVPGNHQQPPQQNTGFPRSSQPYYNSRGVSRGGSRGARGLMNGYRGPANGFRGGYDGYRPSFSNTPNSGYSQSQFTAPRDYSGYQRDGYQQNFKRGSGQSGPRGAPRGRGGPPRPNRGMPQMNTQQVN

Reference: paper PMC11140966
